Source: patent CN114409792A
Results are given in words; binding and its absence hold for the method and conditions named. Some results given as binding are weak or reduced against the parent protein; the word gives no strength.

Molecular target: T1, 重组人EphB4蛋白 (human) (UniProt P54760)
T1 sequence (looked up): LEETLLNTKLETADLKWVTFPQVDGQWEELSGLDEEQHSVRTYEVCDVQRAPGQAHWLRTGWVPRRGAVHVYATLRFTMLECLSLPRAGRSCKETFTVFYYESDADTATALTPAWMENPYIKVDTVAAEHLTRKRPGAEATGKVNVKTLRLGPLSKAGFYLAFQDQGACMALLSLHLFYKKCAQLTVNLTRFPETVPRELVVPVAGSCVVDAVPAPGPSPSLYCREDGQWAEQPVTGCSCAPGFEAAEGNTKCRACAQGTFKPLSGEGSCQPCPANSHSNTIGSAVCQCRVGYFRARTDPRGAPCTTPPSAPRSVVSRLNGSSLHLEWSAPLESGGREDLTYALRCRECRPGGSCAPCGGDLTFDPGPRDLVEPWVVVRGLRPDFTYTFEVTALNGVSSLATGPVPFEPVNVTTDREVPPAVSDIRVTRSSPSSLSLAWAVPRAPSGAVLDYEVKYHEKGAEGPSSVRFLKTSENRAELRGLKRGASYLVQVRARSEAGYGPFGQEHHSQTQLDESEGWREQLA
Assay: phage display panning and monoclonal phage ELISA on plate-coated recombinant EphB4; positive clone sequenced and expressed

B1: EphB4纳米抗体A65 (VHH)
VHH: QVQLVESGGGLVQAGGSLRLSCAASGRTFSAYVMAWFRQAPGKEREFVAAISRTAVYTTYADSVKGRFTISRDFAKDTVYLQMDSLKPVDTAVYYCAADSAVDYRRTYYSPGDFGSWGQGTQVTVSS
  binding: binds
